Our source for the binding values is paper PMC9820469.

By UniProt entry, the sequences of proteins in these tests, tags left out.
UniProt P17096: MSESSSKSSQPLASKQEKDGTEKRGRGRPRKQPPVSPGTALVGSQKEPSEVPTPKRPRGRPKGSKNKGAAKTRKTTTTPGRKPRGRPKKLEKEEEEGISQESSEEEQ

The experiment has as its target High mobility group A1 (HMGA1) (human (endogenous in MDA-MB-231)) (UniProt P17096). As to the kind of experiment: co-IP; α-HMGA1 (negative control α-GFP) on protein G agarose beads; 500 μg MDA-MB-231 cell lysate digested with DNase I (1100 U per 550 μg, 20 min, 37 °C), 3 h at 4 °C in Lysis Buffer; washed three times in Tris/HCl pH seven; western blot with α-HMGA1 and α-NPAT; a lysate not treated with DNase I was run in parallel.

No constants are given. Whether binding was seen depends on the method and setting. In cells and extracts the contact can be indirect. Some entries that bind do so weakly or less than the wild type.

B1: nuclear protein of the ataxia-telangiectasia mutated locus (NPAT) (protein, UniProt Q14207 1-1427)
chain: MLLPSDVARLVLGYLQQENLISTCQTFILESSDLKEYAEHCTDEGFIPACLLSLFGKNLTTILNEYVAMKTKETSNNVPAIMSSLWKKLDHTLSQIRSMQSSPRFAGSQRARTRTGIAEIKRQRKLASQTAPASAELLTLPYLSGQFTTPPSTGTQVTRPSGQISDPSRSYFVVVNHSQSQDTVTTGEALNVIPGAQEKKAHASLMSPGRRKSESQRKSTTLSGPHSTIRNFQDPNAFAVEKQMVIENAREKILSNKSLQEKLAENINKFLTSDNNIAQVPKQTDNNPTEPETSIDEFLGLPSEIHMSEEAIQDILEQTESDPAFQALFDLFDYGKTKNNKNISQSISSQPMESNPSIVLADETNLAVKGSFETEESDGQSGQPAFCTSYQNDDPLNALKNSNNHDVLRQEDQENFSQISTSIQKKAFKTAVPTEQKCDIDITFESVPNLNDFNQRGNSNAECNPHCAELYTNQMSTETEMAIGIEKNSLSSNVPSESQLQPDQPDIPITSFVSLGCEANNENLILSGKSSQLLSQDTSLTGKPSKKSQFCENSNDTVKLKINFHGSKSSDSSEVHKSKIEINVLEPVMSQLSNCQDNSCLQSEILPVSVESSHLNVSGQVEIHLGDSLSSTKQPSNDSASVELNHTENEAQASKSENSQEPSSSVKEENTIFLSLGGNANCEKVALTPPEGTPVENSHSLPPESVCSSVGDSHPESQNTDDKPSSNNSAEIDASNIVSLKVIISDDPFVSSDTELTSAVSSINGENLPTIILSSPTKSPTKNAELVKCLSSEETVGAVVYAEVGDSASMEQSLLTFKSEDSAVNNTQNEDGIAFSANVTPCVSKDGGYIQLMPATSTAFGNSNNILIATCVTDPTALGTSVSQSNVVVLPGNSAPMTAQPLPPQLQTPPRSNSVFAVNQAVSPNFSQGSAIIIASPVQPVLQGMVGMIPVSVVGQNGNNFSTPPRQVLHMPLTAPVCNRSIPQFPVPPKSQKAQGLRNKPCIGKQVNNLVDSSGHSVGCHAQKTEVSDKSIATDLGKKSEETTVPFPEESIVPAAKPCHRRVLCFDSTTAPVANTQGPNHKMVSQNKERNAVSFPNLDSPNVSSTLKPPSNNAIKREKEKPPLPKILSKSESAISRHTTIRETQSEKKVSPTEIVLESFHKATANKENELCSDVERQKNPENSKLSIGQQNGGLRSEKSIASLQEMTKKQGTSSNNKNVLSVGTAVKDLKQEQTKSASSLITTEMLQDIQRHSSVSRLADSSDLPVPRTPGSGAGEKHKEEPIDIIKAPSSRRFSEDSSTSKVMVPPVTPDLPACSPASETGSENSVNMAAHTLMILSRAAISRTTSATPLKDNTQQFRASSRSTTKKRKIEELDERERNSRPSSKNLTNSSIPMKKKKIKKKKLPSSFPAGMDVDKFLLSLHYDE
B1: the binding entry is reported as “binds”.
